Results are given in words; binding and its absence hold for the method and conditions named. In cells and extracts the contact can be indirect. Some results given as binding are weak or reduced against the parent protein; the word gives no strength.
Target: Bcl-xL (human (endogenous in human cancer cell lines)) (UniProt Q07817)
Experiment: co-IP; lysates of various cancer cell lines in RIPA lysis buffer with 10 mM N-ethylmaleimide and 1 mM PMSF, sonicated; 1 ug anti-Bcl-xL antibody overnight at 4 °C, Protein G agarose beads 2 h at 4 °C; western blot; control conditions

By UniProt entry, the sequences of proteins in these tests, tags left out.
UniProt Q07817: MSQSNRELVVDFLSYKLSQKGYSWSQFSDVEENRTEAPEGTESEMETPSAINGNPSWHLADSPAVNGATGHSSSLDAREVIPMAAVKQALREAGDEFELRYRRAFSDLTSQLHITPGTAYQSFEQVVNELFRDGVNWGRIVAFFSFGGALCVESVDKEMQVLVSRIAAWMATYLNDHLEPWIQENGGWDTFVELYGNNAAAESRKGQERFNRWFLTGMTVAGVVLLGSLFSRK
UniProt O60260: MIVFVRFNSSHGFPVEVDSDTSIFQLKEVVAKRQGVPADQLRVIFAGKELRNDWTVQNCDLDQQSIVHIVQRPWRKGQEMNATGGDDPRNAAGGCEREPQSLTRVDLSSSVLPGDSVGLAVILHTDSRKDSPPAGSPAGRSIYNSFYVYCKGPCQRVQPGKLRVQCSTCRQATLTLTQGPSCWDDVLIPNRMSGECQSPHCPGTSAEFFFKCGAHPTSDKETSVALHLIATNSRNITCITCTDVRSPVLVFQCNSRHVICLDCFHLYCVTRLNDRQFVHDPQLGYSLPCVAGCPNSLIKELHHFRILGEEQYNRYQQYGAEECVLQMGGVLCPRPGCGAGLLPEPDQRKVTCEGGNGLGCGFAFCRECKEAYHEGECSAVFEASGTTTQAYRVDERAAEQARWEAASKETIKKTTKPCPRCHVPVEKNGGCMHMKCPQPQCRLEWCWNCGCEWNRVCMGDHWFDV

Parkin (from UniProt O60260 1-465) (enzyme)
binding: binds
